In the supplement of paper PMC10849652:
Some of the results follow. Residues, ends and D or L forms follow the SMILES beside them. *: point of attachment. Cbz = O=C(OCc1ccccc1)*

Amino acid sequences for entries named in this document (tags omitted). A change or cut given only in a name is not applied to a line headed by its entry.
UniProt Q9BUA3: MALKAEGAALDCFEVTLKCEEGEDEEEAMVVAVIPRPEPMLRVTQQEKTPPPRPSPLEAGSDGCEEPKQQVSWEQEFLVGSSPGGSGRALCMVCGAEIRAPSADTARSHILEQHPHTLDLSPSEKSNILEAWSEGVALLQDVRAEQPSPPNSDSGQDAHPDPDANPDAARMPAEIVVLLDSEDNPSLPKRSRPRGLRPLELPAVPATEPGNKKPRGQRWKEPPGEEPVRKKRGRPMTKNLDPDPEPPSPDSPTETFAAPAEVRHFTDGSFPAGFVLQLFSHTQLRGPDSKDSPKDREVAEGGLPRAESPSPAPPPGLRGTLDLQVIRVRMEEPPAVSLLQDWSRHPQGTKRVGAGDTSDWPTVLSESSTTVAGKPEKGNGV
UniProt Q16842: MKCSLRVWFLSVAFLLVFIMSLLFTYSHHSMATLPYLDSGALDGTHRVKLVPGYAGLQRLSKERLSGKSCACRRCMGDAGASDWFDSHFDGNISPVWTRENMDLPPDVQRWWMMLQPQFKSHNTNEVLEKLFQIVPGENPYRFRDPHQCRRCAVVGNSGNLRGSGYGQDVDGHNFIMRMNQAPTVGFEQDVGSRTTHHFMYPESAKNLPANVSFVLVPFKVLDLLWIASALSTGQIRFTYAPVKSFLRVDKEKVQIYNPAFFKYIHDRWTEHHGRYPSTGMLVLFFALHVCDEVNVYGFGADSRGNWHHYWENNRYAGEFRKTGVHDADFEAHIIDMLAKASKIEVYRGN
UniProt Q8WXA9: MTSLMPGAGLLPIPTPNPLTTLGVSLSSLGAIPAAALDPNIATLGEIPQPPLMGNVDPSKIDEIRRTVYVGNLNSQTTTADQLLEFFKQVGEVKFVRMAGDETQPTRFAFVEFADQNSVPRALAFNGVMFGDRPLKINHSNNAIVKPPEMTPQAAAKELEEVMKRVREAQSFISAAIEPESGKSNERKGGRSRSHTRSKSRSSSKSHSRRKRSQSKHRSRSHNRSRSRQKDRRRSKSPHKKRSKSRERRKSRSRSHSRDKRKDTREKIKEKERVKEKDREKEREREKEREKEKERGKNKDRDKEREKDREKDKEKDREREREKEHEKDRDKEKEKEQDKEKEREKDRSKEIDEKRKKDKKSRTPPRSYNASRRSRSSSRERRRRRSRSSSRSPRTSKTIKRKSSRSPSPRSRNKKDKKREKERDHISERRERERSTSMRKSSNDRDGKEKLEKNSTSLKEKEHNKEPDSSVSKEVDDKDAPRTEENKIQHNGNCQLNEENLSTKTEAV
UniProt P40763, whole entry, looked up: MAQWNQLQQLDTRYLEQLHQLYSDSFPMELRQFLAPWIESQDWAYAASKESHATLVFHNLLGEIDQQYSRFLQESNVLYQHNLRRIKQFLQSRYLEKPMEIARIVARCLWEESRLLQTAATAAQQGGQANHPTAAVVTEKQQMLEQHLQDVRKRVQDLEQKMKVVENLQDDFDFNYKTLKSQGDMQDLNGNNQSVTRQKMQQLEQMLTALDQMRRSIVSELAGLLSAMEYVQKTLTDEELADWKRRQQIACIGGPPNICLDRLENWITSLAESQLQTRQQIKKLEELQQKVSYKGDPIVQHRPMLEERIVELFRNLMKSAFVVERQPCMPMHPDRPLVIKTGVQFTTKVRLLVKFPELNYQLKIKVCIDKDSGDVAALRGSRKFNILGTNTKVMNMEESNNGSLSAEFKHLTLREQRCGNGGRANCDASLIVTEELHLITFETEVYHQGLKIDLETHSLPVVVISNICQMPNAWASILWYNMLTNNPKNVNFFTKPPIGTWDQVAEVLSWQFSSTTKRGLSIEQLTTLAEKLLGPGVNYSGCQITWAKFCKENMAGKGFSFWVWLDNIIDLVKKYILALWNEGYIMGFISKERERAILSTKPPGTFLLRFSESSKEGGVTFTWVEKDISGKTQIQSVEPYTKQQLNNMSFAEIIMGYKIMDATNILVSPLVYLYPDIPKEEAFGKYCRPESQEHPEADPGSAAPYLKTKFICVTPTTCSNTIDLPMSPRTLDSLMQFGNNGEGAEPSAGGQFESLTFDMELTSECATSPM
UniProt Q8N0X7: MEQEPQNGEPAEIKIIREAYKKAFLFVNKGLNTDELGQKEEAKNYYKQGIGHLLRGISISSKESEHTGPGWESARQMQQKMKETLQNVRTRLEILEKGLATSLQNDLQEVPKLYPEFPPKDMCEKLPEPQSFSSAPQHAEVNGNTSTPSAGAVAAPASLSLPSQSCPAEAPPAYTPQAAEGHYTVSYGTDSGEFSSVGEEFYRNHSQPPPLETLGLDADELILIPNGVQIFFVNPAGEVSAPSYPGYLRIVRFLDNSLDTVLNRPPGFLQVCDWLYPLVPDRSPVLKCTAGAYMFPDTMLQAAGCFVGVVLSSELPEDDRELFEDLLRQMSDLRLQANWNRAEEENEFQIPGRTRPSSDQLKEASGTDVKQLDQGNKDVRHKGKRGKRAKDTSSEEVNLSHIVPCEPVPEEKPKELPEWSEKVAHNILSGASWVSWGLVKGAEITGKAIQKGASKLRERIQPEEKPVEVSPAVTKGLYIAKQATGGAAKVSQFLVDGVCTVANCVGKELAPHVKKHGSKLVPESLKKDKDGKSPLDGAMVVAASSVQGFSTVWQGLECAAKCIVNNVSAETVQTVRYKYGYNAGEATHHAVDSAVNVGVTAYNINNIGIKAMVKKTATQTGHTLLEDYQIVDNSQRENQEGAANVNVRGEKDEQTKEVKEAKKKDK
UniProt Q9UBP0: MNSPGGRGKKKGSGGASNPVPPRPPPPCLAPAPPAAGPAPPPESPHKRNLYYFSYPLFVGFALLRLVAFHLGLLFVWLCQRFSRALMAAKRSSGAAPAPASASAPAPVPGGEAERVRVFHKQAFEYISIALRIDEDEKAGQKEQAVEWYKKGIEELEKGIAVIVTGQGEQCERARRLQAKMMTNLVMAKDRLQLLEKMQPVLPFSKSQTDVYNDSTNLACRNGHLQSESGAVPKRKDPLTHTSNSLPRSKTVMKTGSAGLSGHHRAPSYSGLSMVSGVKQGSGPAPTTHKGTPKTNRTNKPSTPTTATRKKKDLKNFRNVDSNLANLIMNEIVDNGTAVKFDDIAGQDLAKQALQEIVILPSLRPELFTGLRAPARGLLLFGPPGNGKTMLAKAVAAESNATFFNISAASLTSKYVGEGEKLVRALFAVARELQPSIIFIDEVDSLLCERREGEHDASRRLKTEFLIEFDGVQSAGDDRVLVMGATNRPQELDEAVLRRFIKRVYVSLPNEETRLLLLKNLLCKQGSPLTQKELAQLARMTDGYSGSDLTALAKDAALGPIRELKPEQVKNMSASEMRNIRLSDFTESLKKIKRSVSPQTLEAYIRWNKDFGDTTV
UniProt Q07955, whole entry, looked up: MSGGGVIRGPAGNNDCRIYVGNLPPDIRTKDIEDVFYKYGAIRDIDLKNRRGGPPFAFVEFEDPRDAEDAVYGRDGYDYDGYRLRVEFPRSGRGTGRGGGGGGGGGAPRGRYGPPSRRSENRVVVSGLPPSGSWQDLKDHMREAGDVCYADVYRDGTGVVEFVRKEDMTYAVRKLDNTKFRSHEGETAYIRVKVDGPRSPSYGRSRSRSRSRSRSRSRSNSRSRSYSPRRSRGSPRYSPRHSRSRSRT
UniProt P78362, whole entry, looked up: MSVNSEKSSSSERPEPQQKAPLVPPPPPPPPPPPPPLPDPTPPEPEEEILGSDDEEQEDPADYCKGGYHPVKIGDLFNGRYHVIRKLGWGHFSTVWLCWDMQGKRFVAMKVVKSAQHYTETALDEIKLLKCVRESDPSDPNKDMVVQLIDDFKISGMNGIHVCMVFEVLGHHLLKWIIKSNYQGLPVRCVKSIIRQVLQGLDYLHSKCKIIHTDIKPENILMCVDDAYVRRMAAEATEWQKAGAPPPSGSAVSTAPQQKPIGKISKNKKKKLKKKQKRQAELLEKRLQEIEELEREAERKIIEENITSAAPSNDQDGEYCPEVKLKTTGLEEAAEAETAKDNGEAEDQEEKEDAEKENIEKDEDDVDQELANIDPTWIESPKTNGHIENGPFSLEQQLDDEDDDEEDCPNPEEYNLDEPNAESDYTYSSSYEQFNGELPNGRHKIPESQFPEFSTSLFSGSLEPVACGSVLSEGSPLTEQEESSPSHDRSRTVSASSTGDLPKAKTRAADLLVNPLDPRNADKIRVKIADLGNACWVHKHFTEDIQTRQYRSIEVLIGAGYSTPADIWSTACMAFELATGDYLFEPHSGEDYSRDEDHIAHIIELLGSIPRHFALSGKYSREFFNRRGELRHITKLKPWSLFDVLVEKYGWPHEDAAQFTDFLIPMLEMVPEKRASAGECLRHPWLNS
UniProt P09132: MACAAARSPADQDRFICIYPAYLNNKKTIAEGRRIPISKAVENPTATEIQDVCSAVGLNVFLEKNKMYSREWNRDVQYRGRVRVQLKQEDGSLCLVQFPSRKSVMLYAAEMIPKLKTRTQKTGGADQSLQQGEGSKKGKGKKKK
UniProt Q8TCT7: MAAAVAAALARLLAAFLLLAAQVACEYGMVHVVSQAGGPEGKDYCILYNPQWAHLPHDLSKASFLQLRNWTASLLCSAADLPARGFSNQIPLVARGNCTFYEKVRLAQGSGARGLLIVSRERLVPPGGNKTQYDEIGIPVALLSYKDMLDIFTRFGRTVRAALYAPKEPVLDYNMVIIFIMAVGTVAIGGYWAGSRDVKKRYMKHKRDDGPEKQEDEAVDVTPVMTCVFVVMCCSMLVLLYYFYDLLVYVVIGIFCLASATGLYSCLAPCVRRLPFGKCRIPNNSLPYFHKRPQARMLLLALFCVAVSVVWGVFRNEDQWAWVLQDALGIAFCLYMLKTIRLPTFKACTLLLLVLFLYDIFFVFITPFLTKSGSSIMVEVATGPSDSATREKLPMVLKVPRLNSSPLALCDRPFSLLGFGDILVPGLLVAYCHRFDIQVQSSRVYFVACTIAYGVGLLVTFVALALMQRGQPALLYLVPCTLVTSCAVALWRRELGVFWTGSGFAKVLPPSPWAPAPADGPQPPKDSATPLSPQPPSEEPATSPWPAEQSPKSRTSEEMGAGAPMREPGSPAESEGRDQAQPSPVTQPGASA
UniProt P35270: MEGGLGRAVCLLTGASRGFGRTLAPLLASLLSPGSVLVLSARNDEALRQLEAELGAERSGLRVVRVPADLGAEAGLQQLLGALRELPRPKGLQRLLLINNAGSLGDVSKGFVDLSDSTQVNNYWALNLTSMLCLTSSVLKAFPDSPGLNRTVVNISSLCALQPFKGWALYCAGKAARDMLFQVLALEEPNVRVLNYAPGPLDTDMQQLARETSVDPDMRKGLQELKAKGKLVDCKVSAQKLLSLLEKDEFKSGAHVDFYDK
UniProt P51692: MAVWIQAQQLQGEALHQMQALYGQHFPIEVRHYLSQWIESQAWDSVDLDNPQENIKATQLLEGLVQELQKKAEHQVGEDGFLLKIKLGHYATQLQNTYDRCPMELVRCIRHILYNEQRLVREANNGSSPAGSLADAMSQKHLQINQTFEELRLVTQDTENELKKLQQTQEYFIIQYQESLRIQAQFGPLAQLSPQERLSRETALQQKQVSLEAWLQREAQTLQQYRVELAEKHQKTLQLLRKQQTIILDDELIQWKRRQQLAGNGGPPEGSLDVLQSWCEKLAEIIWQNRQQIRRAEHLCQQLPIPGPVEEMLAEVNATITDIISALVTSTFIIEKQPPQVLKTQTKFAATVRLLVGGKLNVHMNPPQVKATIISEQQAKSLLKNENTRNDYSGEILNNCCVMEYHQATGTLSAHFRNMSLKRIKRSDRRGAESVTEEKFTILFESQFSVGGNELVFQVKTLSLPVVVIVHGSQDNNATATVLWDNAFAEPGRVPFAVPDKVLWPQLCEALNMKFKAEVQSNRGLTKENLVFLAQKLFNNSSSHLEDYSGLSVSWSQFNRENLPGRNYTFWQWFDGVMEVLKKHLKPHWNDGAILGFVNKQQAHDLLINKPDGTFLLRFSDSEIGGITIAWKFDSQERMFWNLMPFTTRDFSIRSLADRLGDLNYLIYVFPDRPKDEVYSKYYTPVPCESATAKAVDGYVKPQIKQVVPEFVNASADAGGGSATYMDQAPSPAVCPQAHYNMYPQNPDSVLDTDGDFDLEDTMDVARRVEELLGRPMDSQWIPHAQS
UniProt Q9H2V7: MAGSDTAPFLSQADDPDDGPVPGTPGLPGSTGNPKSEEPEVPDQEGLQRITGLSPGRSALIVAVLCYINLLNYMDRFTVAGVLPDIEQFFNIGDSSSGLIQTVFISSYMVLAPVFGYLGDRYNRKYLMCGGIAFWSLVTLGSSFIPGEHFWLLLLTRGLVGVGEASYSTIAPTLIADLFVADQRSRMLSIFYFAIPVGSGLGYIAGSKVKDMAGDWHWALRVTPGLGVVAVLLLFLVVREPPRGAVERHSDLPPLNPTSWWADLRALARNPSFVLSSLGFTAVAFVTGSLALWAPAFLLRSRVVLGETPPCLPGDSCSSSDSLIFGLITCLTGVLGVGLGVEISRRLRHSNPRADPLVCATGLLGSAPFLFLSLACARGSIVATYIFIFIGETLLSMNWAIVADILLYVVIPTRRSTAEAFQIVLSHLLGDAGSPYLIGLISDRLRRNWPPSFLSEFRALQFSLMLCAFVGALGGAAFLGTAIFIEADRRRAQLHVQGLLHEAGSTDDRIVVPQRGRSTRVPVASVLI

Experiments:
Assay in all cases: log2 fold change, soluble protein after heating vs DMSO (PISA); higher = thermal stabilisation; K562 cells, 10 uM, 30 min; active = over 0.2 and 3.5 SD of the protein, either way, in both replicates (recomputed)
[1] = compound: C1COCCN1CCN2C3=CC=CC=C3N=C2NC(=O)C4=CC(=CC=C4)[N+](=O)[O-] [IRAK-1-4 Inhibitor I]
How it was run: (§1)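 Values are thermal stability changes relative to control samples and are taken from duplicates. They are stated as log2 fold changes. Before quantification by TMTpro 16plex LC-MS/MS with equalised channel sums, K562 cells at 2×10^6 cells/mL were treated with 10 μM compound for 30 min, heated in aliquots for 3 min across 48°C-58°C, pooled, extracted in PBS with 0.5% NP-40 at 4°C, and centrifuged at 21,000xg for 90 min to give the soluble supernatant.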

[2] = compound: C=CC(=O)N1CCC[C@@H](n2nc(-c3ccc(Oc4ccccc4)cc3)c3c(N)ncnc32)C1 [ibrutinib]
How it was run: as §1

[3] = compound: CC(=O)c1cnc2ccc(-c3cc(Cl)c(O)c(Cl)c3)nc2c1N[C@H]1CC[C@H](CN(C)C)CC1
How it was run: as §1

[4] = compound: CC(C)(C)Cn1c(N)nc2ccc(-c3[nH]c(C(C)(C)C)nc3-c3ccc(F)cc3)nc21 [ralimetinib]
How it was run: as §1

[5] = compound: CC(C)(O)CC(=O)NCCn1ccc2ncnc(Nc3ccc(Oc4cccc(C(F)(F)F)c4)c(Cl)c3)c21
How it was run: as §1

[6] = compound: CC(C)C1=C2N=C(C=C(N2N=C1)NCC3=CC=CC=C3)NCCCCCCN
How it was run: as §1

[7] = compound: CC(C)C[C@@H](C=O)NC(=O)[C@H](CC(C)C)NC(=O)[C@H](CC(C)C)NC(=O)OCc1ccccc1
How it was run: as §1

[8] = compound: CC(C)N(C[C@H]1O[C@@H](n2cnc3c(N)ncnc32)[C@H](O)[C@@H]1O)[C@H]1C[C@@H](CCc2nc3cc(C(C)(C)C)ccc3[nH]2)C1 [pinometostat]
How it was run: as §1

[9] = compound: CC1=C(C(CC(=O)N1)C2=CC=C(C=C2)C(F)(F)F)C(=O)NC3=C(C=C4C(=C3)C=NN4)F
How it was run: as §1

[10] = compound: CC1=C(C2=C(C=C1)C(=O)C3=CC=CC=C3N2CCCN)C
How it was run: as §1

Target | log2 fold change [1] | log2 fold change [2] | log2 fold change [3] | log2 fold change [4] | log2 fold change [5] | log2 fold change [6] | log2 fold change [7] | log2 fold change [8] | log2 fold change [9] | log2 fold change [10]
SRGAP2 (UniProt O75044) | inactive: 0.005 | inactive: -0.004 | inactive: -0.068 | inactive: 0.121 | inactive: 0.055 | inactive: -0.022 | inactive: 0.027 | inactive: 0.003 | inactive: -0.028 | inactive: 0.037
SPINDOC (UniProt Q9BUA3) | inactive: 0.029 | inactive: 0.089 | inactive: 0.017 | inactive: 0.084 | inactive: -0.01 | inactive: 0.103 | inactive: 0 | inactive: 0.075 | – | inactive: -0.24
ST3GAL2 (UniProt Q16842) | inactive: -0.183 | inactive: -0.105 | inactive: -0.115 | inactive: -0.009 | inactive: 0.119 | inactive: -0.12 | inactive: 0.066 | inactive: -0.031 | – | inactive: 0.046
SREK1 isoform 2 (UniProt Q8WXA9) | inactive: -0.245 | inactive: -0.006 | active: -0.497 | inactive: 0.036 | inactive: 0.026 | inactive: -0.36 | inactive: 0.005 | inactive: 0.11 | – | inactive: 0.08
STAT3 (UniProt P40763) | inactive: -0.038 | inactive: -0.044 | inactive: 0.009 | inactive: -0.001 | inactive: -0.08 | active: -0.261 | inactive: 0.024 | inactive: 0 | – | inactive: -0.057
SPG7 (UniProt Q9UQ90) | inactive: -0.002 | inactive: 0.015 | inactive: -0.032 | inactive: -0.013 | inactive: 0.002 | inactive: -0.054 | inactive: -0.005 | inactive: -0.007 | inactive: 0.075 | inactive: 0.031
SRP72 (UniProt O76094) | inactive: -0.119 | inactive: -0.03 | inactive: -0.025 | inactive: 0.104 | inactive: -0.121 | inactive: -0.275 | inactive: 0.062 | inactive: 0.205 | – | active: -0.547
SRRM2 (UniProt Q9UQ35) | inactive: -0.074 | inactive: -0.015 | inactive: -0.326 | inactive: 0.063 | inactive: 0.01 | inactive: -0.258 | inactive: 0.002 | inactive: 0.005 | – | inactive: -0.181
SPART (UniProt Q8N0X7) | inactive: 0.008 | inactive: -0.033 | inactive: -0.084 | inactive: 0.02 | inactive: -0.058 | inactive: -0.056 | inactive: -0.011 | inactive: 0.034 | – | inactive: 0.128
SPTLC2 (UniProt O15270) | inactive: -0.012 | inactive: -0.026 | inactive: -0.034 | inactive: -0.02 | inactive: 0.014 | inactive: -0.031 | inactive: 0.005 | inactive: -0.026 | inactive: -0.05 | inactive: 0.007
SRP9 (UniProt P49458) | inactive: -0.171 | inactive: -0.028 | inactive: 0.084 | inactive: 0.125 | inactive: 0.07 | inactive: 0.057 | inactive: 0.152 | inactive: 0.31 | inactive: 0.106 | inactive: -0.356
SPC24 (UniProt Q8NBT2) | inactive: -0.031 | inactive: -0.031 | inactive: 0.096 | inactive: 0.099 | inactive: -0.088 | inactive: -0.152 | inactive: -0.082 | inactive: -0.028 | inactive: -0.015 | inactive: -0.061
SPATA5 (UniProt Q8NB90) | inactive: 0.011 | inactive: 0.027 | inactive: 0.028 | inactive: 0.033 | inactive: 0.008 | inactive: 0.065 | inactive: -0.012 | inactive: -0.03 | inactive: 0.014 | inactive: 0.084
STK26 (UniProt Q9P289) | inactive: 0.03 | active: -0.272 | active: -0.344 | inactive: -0.022 | inactive: -0.081 | inactive: -0.071 | inactive: 0.03 | inactive: -0.019 | – | inactive: -0.07
SPAST (UniProt Q9UBP0) | inactive: 0.054 | inactive: -0.015 | inactive: -0.073 | inactive: 0.015 | inactive: -0.157 | inactive: -0.063 | inactive: 0.013 | inactive: 0.002 | – | inactive: 0.114
SRSF1 (UniProt Q07955) | inactive: -0.284 | inactive: 0.055 | inactive: -0.064 | inactive: 0.022 | inactive: 0.144 | inactive: 0.025 | inactive: 0.067 | inactive: -0.003 | inactive: 0.036 | inactive: -0.368

Full records from above. Order of values: log2 fold change [1]	log2 fold change [2]	log2 fold change [3]	log2 fold change [4]	log2 fold change [5]	log2 fold change [6]	log2 fold change [7]	log2 fold change [8]	log2 fold change [9]	log2 fold change [10]
SRGAP2 (UniProt O75044) in the list: inactive: 0.005	inactive: -0.004	inactive: -0.068	inactive: 0.121	inactive: 0.055	inactive: -0.022	inactive: 0.027	inactive: 0.003	inactive: -0.028	inactive: 0.037
STK26 (UniProt Q9P289) in the list: inactive: 0.03	active: -0.272	active: -0.344	inactive: -0.022	inactive: -0.081	inactive: -0.071	inactive: 0.03	inactive: -0.019	–	inactive: -0.07

Continued.

Target | log2 fold change [1] | log2 fold change [2] | log2 fold change [3] | log2 fold change [4] | log2 fold change [5] | log2 fold change [6] | log2 fold change [7] | log2 fold change [8] | log2 fold change [9] | log2 fold change [10]
STAT6 (UniProt P42226) | inactive: -0.145 | inactive: 0.031 | inactive: -0.222 | inactive: 0.054 | inactive: -0.128 | inactive: -0.058 | inactive: 0.007 | inactive: 0.11 | – | inactive: -0.048
SRI (UniProt P30626) | inactive: -0.017 | inactive: -0.032 | inactive: -0.014 | inactive: -0.039 | inactive: -0.108 | inactive: 0.026 | inactive: -0.048 | inactive: -0.036 | – | inactive: 0.201
SRPK2 isoform 2 (UniProt P78362) | inactive: -0.097 | inactive: -0.003 | inactive: 0.328 | inactive: 0.182 | inactive: 0.026 | inactive: -0.011 | inactive: 0.13 | inactive: 0.346 | inactive: 0.065 | inactive: -0.4
SRFBP1 (UniProt Q8NEF9) | inactive: -0.081 | inactive: -0.037 | inactive: -0.099 | inactive: -0.022 | inactive: 0.091 | inactive: 0.137 | inactive: 0.25 | inactive: 0.018 | – | inactive: 0.023
SRP19 (UniProt P09132) | inactive: 0.016 | inactive: 0.011 | inactive: 0.018 | inactive: 0.137 | inactive: -0.078 | inactive: -0.153 | inactive: -0.026 | inactive: 0.056 | inactive: -0.019 | inactive: -0.034
SPPL2B (UniProt Q8TCT7) | inactive: -0.004 | inactive: 0.013 | inactive: -0.039 | inactive: 0.041 | inactive: 0.179 | inactive: -0.086 | inactive: 0.101 | inactive: -0.032 | – | inactive: 0.02
SRSF11 (UniProt Q05519) | inactive: -0.116 | inactive: -0.014 | active: -0.416 | inactive: 0.01 | inactive: -0.049 | inactive: -0.255 | inactive: -0.005 | inactive: -0.016 | – | inactive: 0.026
SPR (UniProt P35270) | inactive: 0.063 | inactive: 0.04 | inactive: 0.344 | inactive: 0.017 | inactive: -0.038 | inactive: 0.035 | inactive: -0.008 | inactive: -0.053 | – | inactive: 0.083
SPTBN1 (UniProt Q01082) | inactive: -0.079 | inactive: -0.013 | inactive: -0.033 | inactive: 0.08 | inactive: 0.043 | inactive: -0.094 | inactive: 0.024 | inactive: 0.044 | – | inactive: -0.001
SPG21 (UniProt Q9NZD8) | inactive: -0.042 | inactive: -0.167 | inactive: -0.046 | inactive: 0.014 | inactive: 0.043 | inactive: -0.007 | inactive: 0.021 | inactive: 0.019 | – | inactive: 0.072
STAT5B (UniProt P51692) | inactive: -0.153 | inactive: -0.146 | inactive: 0.018 | inactive: 0.121 | inactive: -0.401 | inactive: -0.119 | inactive: 0.044 | inactive: -0.095 | – | inactive: -0.022
SRGN (UniProt P10124) | inactive: 0.001 | inactive: 0.047 | inactive: -0.028 | inactive: 0.16 | inactive: 0.249 | inactive: 0.229 | inactive: -0.026 | inactive: -0.007 | inactive: -0.015 | inactive: -0.493
SPNS1 (UniProt Q9H2V7) | inactive: 0.017 | inactive: 0.011 | inactive: -0.033 | inactive: -0.051 | inactive: -0.127 | inactive: -0.233 | inactive: 0.091 | inactive: -0.041 | inactive: 0.037 | inactive: 0.011
ST13 (UniProt P50502) | inactive: 0.017 | inactive: -0.029 | inactive: 0.005 | inactive: -0.005 | inactive: -0.038 | inactive: -0.068 | inactive: -0.013 | inactive: -0.021 | inactive: 0 | inactive: -0.002
SPCS2 (UniProt Q15005) | inactive: -0.014 | inactive: -0.037 | inactive: -0.039 | inactive: -0.047 | inactive: -0.016 | inactive: -0.01 | inactive: -0.058 | inactive: -0.062 | – | inactive: 0.002
